Test results taken from the supplement of paper PMC8166895.
Where a name gives a salt, the structure may show the parent alone. The list shows a part of the results. Most values lie at the level of the controls, where differences are scatter.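 A single-replicate pilot screen of approved drugs and clinical or known-target compounds measured melting temperature via differential scanning fluorimetry. Top stabilizing hits raised the melting point by 2 °C or more; negative shifts indicate destabilization.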

The compounds below were run on SARS-CoV-2 main protease (Mpro, nsp5) (assay: thermal shift ΔTm of Mpro relative to plate average Tm; higher = stronger thermal stabilization of Mpro (binding)). Conditions: 10 µM; protein concentration 1 µM.

Compared with `CCC(NC(C)C)C(O)c1ccc(O)c2[nH]c(=O)ccc12` (stereo not given) [Procaterol hydrochloride], `CC(=O)CC(c1ccccc1)c1c(O)c2ccccc2oc1=O` (stereo not given) [Warfarin sodium] is higher in “thermal shift ΔTm of Mpro” value: -0.116 °C for the first, 0.226 °C for the second.

Going from `C#Cc1cccc(Nc2ncnc3cc(OCCOC)c(OCCO)cc23)c1` to `COc1ccc(C(=O)Nc2cc(-c3ccccc3)[nH]n2)cc1OC`, the “thermal shift ΔTm of Mpro” value falls from -0.042 °C to -0.169 °C.

Going from `CC[C@H](CC#N)OC(=O)N[C@@H](C)c1cccc(NC(=O)Nc2ccc(-c3cnco3)c(OC)c2)c1` to `COc1nc(OCc2cccc(-c3ccccc3)c2C)ccc1CNCCNC(C)=O` [PD1-PDL1 inhibitor 2], the “thermal shift ΔTm of Mpro” value falls from 0.00477 °C to -0.318 °C.

Going from `Cn1cnc2c(F)c(Nc3ccc(Br)cc3F)c(C(=O)NOCCO)cc21` to `NCCOc1ccc(Cl)cc1C(=O)Nc1ccc([N+](=O)[O-])cc1Cl` [HJC0152 hydrochloride], the “thermal shift ΔTm of Mpro” value rises from -0.0424 °C to -0.0037 °C.

Compared with `Nc1ccc(-c2cnc(N)c(-c3ccc(Cl)cc3)c2)cn1`, `Nc1ccc(-c2ccc3ncc4ccc(=O)n(-c5cccc(C(F)(F)F)c5)c4c3c2)cn1` [Torin 2] is lower in “thermal shift ΔTm of Mpro” value: -0.0273 °C for the first, -0.342 °C for the second.

First: Nc1nc(N)c(N=O)c(OCC2CCCCC2)n1
Second: NC(=O)c1cccc(-c2cccc(OC(=O)NC3CCCCC3)c2)c1
The “thermal shift ΔTm of Mpro” value of the first is higher: 0.0312 °C for the first, -0.00949 °C for the second.

Compared with `NC(=O)c1cnccn1` [Pyrazinamide], `Cc1c(NC(=O)c2cccnc2)c(=O)n(-c2ccccc2)n1C` [Nifenazone] is lower in “thermal shift ΔTm of Mpro” value: 0.0494 °C for the first, 0.0321 °C for the second.

First: CC(C)(C)CC(C)(C)c1cc(Cc2cc(C(C)(C)CC(C)(C)C)cc(-n3nc4ccccc4n3)c2O)c(O)c(-n2nc3ccccc3n2)c1 [Bisoctrizole]
Second: Nc1c(S(=O)(=O)c2ccccc2)c2nc3ccccc3nc2n1-c1ccc(F)cc1
The “thermal shift ΔTm of Mpro” value of the first is higher: 0.404 °C for the first, -0.0827 °C for the second.

First: COc1cc2nc(N3CCCC3)nc(NCCCCCN3CCCC3)c2cc1OC
Second: Cc1ccccc1N1CCN(CCc2nnc3n2CCCC3)CC1 [Dapiprazole Hydrochloride]
The “thermal shift ΔTm of Mpro” value of the first is lower: -0.153 °C for the first, -0.0949 °C for the second.

First: CC(C)C[C@H](NC(=O)[C@H](Cc1ccccc1)C[C@@H](O)[C@H](Cc1ccccc1)NC(=O)OC(C)(C)C)C(=O)N[C@@H](Cc1ccccc1)C(N)=O
Second: CC(=O)O[C@H]1C(=O)[C@@]2(C)[C@H]([C@H](OC(=O)c3ccccc3)[C@]3(O)C[C@H](OC(=O)[C@H](O)[C@@H](NC(=O)c4ccccc4)c4ccccc4)C(C)=C1C3(C)C)[C@]1(OC(C)=O)CO[C@@H]1C[C@@H]2O [Paclitaxel]
The “thermal shift ΔTm of Mpro” value of the first is higher: 0.0406 °C for the first, -0.203 °C for the second.

Compared with `Cc1cnc(-c2ccccc2C(C)C)nc1NCc1ccc(-n2ccnn2)cc1`, `Cc1ncc(-c2ccnc(Nc3ccc(S(C)(=O)=O)cc3)n2)n1C(C)C` is higher in “thermal shift ΔTm of Mpro” value: -0.189 °C for the first, 0.0651 °C for the second.

Going from `CSc1nc2cc(Cl)c(Oc3cccc(Cl)c3Cl)cc2[nH]1` [Triclabendazole] to `CNc1cc(-c2cccc(Cl)c2Cl)nc(N)n1`, the “thermal shift ΔTm of Mpro” value falls from 0.0676 °C to -0.144 °C.

Going from `CCCCCCCCCCCCCCCCn1cc[n+](Cc2ccccc2)c1C` to `CCc1ccc(-c2nc(CSCC(=O)NCCc3ccccc3)c(C)o2)cc1`, the “thermal shift ΔTm of Mpro” value rises from -0.241 °C to -0.211 °C.

Compared with `O=C1[C@@H]2[C@H]3CC[C@H](C3)[C@@H]2C(=O)N1C[C@@H]1CCCC[C@H]1CN1CCN(c2nsc3ccccc23)CC1` [Lurasidone hydrochloride], `Cc1c(CN2CCN(C(=O)[C@H](C)O)CC2)sc2c(N3CCOCC3)nc(-c3cnc(N)nc3)nc12` is lower in “thermal shift ΔTm of Mpro” value: -0.0834 °C for the first, -0.165 °C for the second.

Going from `COc1cccc2c1C(=O)c1c(O)c3c(c(O)c1C2=O)C[C@@](O)(C(=O)CO)C[C@@H]3O[C@H]1C[C@H](N)[C@@H](O)[C@H](C)O1` [Epirubicin HCl] to `COC[C@H]1OC(=O)c2coc3c2[C@@]1(C)C1=C(C3=O)[C@@H]2CCC(=O)[C@@]2(C)C[C@H]1OC(C)=O` [Wortmannin], the “thermal shift ΔTm of Mpro” value rises from 0.249 °C to 0.327 °C.

Compared with `CCCN(CCC)CCc1cccc2c1CC(=O)N2` [Ropinirole HCl], `CCN(CC)CC(=O)Nc1c(C)cccc1C` [Lidocaine] is higher in “thermal shift ΔTm of Mpro” value: 0.205 °C for the first, 0.573 °C for the second.

First: CN[C@H]1C(=O)N[C@@H]2Cc3ccc(cc3)Oc3cc4cc(c3O[C@@H]3O[C@H](C(=O)O)[C@@H](O)[C@H](O)[C@H]3NC(=O)CCCCCCCCC(C)C)Oc3ccc(cc3Cl)[C@@H](O)[C@@H]3NC(=O)[C@H](NC(=O)[C@@H]4NC(=O)[C@@H](NC2=O)c2cc(cc(O)c2Cl)Oc2cc1ccc2O)c1ccc(O)c(c1)-c1c(O[C@H]2O[C@H](CO)[C@@H](O)[C@H](O)[C@@H]2O)cc(O)cc1[C@@H](C(=O)O)NC3=O [Dalbavancin Impurity]
Second: CC(C)(O)[C@@H]1CC[C@](C)([C@H]2[C@@H](O)C[C@@]3(C)[C@@H]4C[C@H](O)[C@H]5C(C)(C)[C@@H](O[C@@H]6OC[C@@H](O)[C@H](O)[C@H]6O[C@@H]6O[C@H](CO)[C@@H](O)[C@H](O)[C@H]6O)CC[C@@]56C[C@@]46CC[C@]23C)O1 [Astragaloside III]
The “thermal shift ΔTm of Mpro” value of the first is lower: 0.0397 °C for the first, 0.0451 °C for the second.

First: COc1c(-c2ccc3cc(NS(C)(=O)=O)ccc3c2)cc(-n2ccc(=O)[nH]c2=O)cc1C(C)(C)C [Dasabuvir]
Second: CN(c1ccccc1CNc1nc(Nc2ccc3c(c2)CC(=O)N3)ncc1C(F)(F)F)S(C)(=O)=O
The “thermal shift ΔTm of Mpro” value of the first is lower: -0.49 °C for the first, -0.0525 °C for the second.

First: COC(=O)/C=C/C(=O)OCCN1C(=O)CCC1=O [Diroximel Fumarete]
Second: CO/N=C(\C(=O)N[C@@H]1C(=O)N2C(C(=O)[O-])=C(C[n+]3cccc4c3CCC4)CS[C@H]12)c1csc(N)n1 [Cefpirome sulfate]
The “thermal shift ΔTm of Mpro” value of the first is lower: 0.0913 °C for the first, 0.2 °C for the second.

Compared with `CN1CCC(Nc2nc(Nc3ccc(Oc4ccccc4)cc3)c3c(=O)[nH]cc(Br)c3n2)CC1`, `O=S(=O)(CC1CS1)c1ccc(Oc2ccccc2)cc1` (stereo not given) is lower in “thermal shift ΔTm of Mpro” value: -0.0185 °C for the first, -0.178 °C for the second.

Compared with `O=C([O-])[C@H](O)[C@@H](O)[C@H](O)[C@H](O)CO.O=C([O-])[C@H](O)[C@@H](O)[C@H](O)[C@H](O)CO.[Ca+2]` [Calcium gluconate], `CC(C)(CO)c1cc2cc(NC(=O)C3(c4ccc5c(c4)OC(F)(F)O5)CC3)c(F)cc2n1C[C@@H](O)CO` is lower in “thermal shift ΔTm of Mpro” value: 0.111 °C for the first, -0.0867 °C for the second.

Going from `N#Cc1ccc(-c2csc(NN=C3CCCC3)n2)cc1` [Remodelin] to `N#CCNC(=O)c1ccc(-c2ccnc(Nc3ccc(N4CCOCC4)cc3)n2)cc1`, the “thermal shift ΔTm of Mpro” value rises from -0.238 °C to -0.0998 °C.

Compared with `O=C(/C=C/c1ccc(O)cc1)c1ccc(O)cc1O` [Isoliquiritigenin], `Oc1ccc(C(c2c[nH]c3ccccc23)c2c[nH]c3ccccc23)cc1` is lower in “thermal shift ΔTm of Mpro” value: 0.848 °C for the first, 0.0473 °C for the second.

Going from `CS(=O)(=O)OCCCCOS(C)(=O)=O` [Busulfan] to `NC(=O)CCCCC1CCSS1` (stereo not given) [Thioctamide], the “thermal shift ΔTm of Mpro” value rises from -0.0173 °C to -0.00248 °C.

First: OCc1c[nH]c2ccccc12 [Indole-3-carbinol]
Second: c1ccc2c(CC3=NCCN3)cccc2c1 [Naphazoline HCl]
The “thermal shift ΔTm of Mpro” value of the first is lower: -0.106 °C for the first, 0.0724 °C for the second.

Going from `CC1(C)CC(O)CC(C)(C)N1[O]` [Tempol] to `CC(=O)OCC(=O)[C@@]12OC(C)(C)O[C@@H]1C[C@H]1[C@@H]3C[C@H](F)C4=CC(=O)C=C[C@]4(C)[C@@]3(F)[C@@H](O)C[C@@]12C` [Fluocinonide], the “thermal shift ΔTm of Mpro” value rises from -0.186 °C to 0.0122 °C.

First: O=C(Nc1ccccc1)C12CC1C(=NO)c1ccccc1O2 (stereo not given)
Second: CC(=O)CC(c1ccccc1)c1c(O)c2ccccc2oc1=O (stereo not given) [Warfarin]
The “thermal shift ΔTm of Mpro” value of the first is lower: -0.0845 °C for the first, 0.246 °C for the second.

Compared with `C[C@@H]1[C@H]2c3cc4c(cc3O[C@@]35OCOC3=CC(=O)[C@H](C[C@H]1C)[C@@H]25)OCO4` [Sauchinone], `C/C1=C\C(=O)c2c(C)coc2C/C(C)=C/CC1` [Furanodienone] is higher in “thermal shift ΔTm of Mpro” value: -0.0782 °C for the first, 0.0384 °C for the second.

First: O=C(OOC(=O)c1ccccc1)c1ccccc1 [Benzoyl peroxide]
Second: CN1CCc2c(c3ccccc3n2Cc2ccc(C(=O)NO)cc2)C1 [Tubastatin A HCl]
The “thermal shift ΔTm of Mpro” value of the first is higher: 0.36 °C for the first, 0.0418 °C for the second.

First: Cc1ccc2nc(CN(CCN(Cc3nc4ccc(C)cc4[nH]3)Cc3nc4ccc(C)cc4[nH]3)Cc3nc4ccc(C)cc4[nH]3)[nH]c2c1
Second: COc1ccc(S(=O)(=O)N[C@@H](CNc2nc(C)nc(N3CCC(c4ccc5c(n4)NCCC5)CC3)c2C)C(=O)O)cc1
The “thermal shift ΔTm of Mpro” value of the first is higher: 0.222 °C for the first, 0.0118 °C for the second.

First: c1nc2c(NC3CCCCC3)nc(Nc3ccc(N4CCOCC4)cc3)nc2[nH]1 [Reversine]
Second: O=c1c(-n2ccnn2)c[nH]n1-c1cc(N2CCOCC2)ncn1 [Molidustat]
The “thermal shift ΔTm of Mpro” value of the first is lower: 0.158 °C for the first, 0.202 °C for the second.

Going from `COc1cc2nccc(Oc3ccc(NC(=O)NC4CC4)c(Cl)c3)c2cc1C(N)=O` [Lenvatinib (E7080)] to `CN1CCc2c(c3ccccc3n2Cc2ccc(C(=O)NO)cc2)C1` [Tubastatin A], the “thermal shift ΔTm of Mpro” value falls from 0.0338 °C to -0.22 °C.

Going from `CCC(C)(Oc1ccc(C2(c3ccc(OC(C)(CC)C(=O)O)cc3)CCCCC2)cc1)C(=O)O` (stereo not given) [Clinofibrate] to `CC(C)COc1ccc(CNC(=O)N(Cc2ccc(F)cc2)C2CCN(C)CC2)cc1` [Pimavanserin tartrate], the “thermal shift ΔTm of Mpro” value falls from 0.0406 °C to -0.16 °C.

Compared with `C[C@@H](O[C@H]1OCCN(Cc2nn(P(=O)(O)O)c(=O)[nH]2)[C@H]1c1ccc(F)cc1)c1cc(C(F)(F)F)cc(C(F)(F)F)c1` [Fosaprepitant dimeglumine salt], `CC(C)COc1ccc(CNC(=O)N(Cc2ccc(F)cc2)C2CCN(C)CC2)cc1` [Pimavanserin] is higher in “thermal shift ΔTm of Mpro” value: -0.121 °C for the first, 0.0515 °C for the second.

Compared with `CN(C)CC(=O)O` [N,N-Dimethylglycine], `CCN(CC)CC(=O)Nc1c(C)cccc1C` [Lidocaine Hydrochloride hydrate] is higher in “thermal shift ΔTm of Mpro” value: 0.171 °C for the first, 0.231 °C for the second.

Compared with `Cc1cnc(-c2cc(N3CCN(C(=O)CCS(C)(=O)=O)CC3)ncc2Cl)c(C)c1`, `Cc1cc(C)c(/C=C2/C(=O)Nc3ccc(Cl)cc32)[nH]1` is higher in “thermal shift ΔTm of Mpro” value: -0.163 °C for the first, -0.0418 °C for the second.

First: CC[C@@H]1C(=O)OC[C@@H]1Cc1cncn1C [Pilocarpine HCl]
Second: CC(=O)c1cc2c(o1)C(=O)c1ccccc1C2=O [Napabucasin]
The “thermal shift ΔTm of Mpro” value of the first is lower: -0.137 °C for the first, 0.148 °C for the second.

`S=C(S)N1CCCC1` [Pyrrolidinedithiocarbamate ammonium] was tested, and the “thermal shift ΔTm of Mpro” value was -6.71 °C.
